Source: publication PMC5597257

The chains behind the UniProt entries cited, without tags or fusion partners. Where a name states a change or a piece, a line headed by the entry shows the natural chain unless it says otherwise.
UniProt A0A219V415: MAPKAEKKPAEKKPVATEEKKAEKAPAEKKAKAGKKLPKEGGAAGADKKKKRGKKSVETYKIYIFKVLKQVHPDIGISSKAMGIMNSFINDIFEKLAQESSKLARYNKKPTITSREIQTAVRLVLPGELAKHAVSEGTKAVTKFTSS

Target: NbHUB1 fused to the N-terminal fragment of YFP (pSPYNE-NbHUB1) (Nicotiana benthamiana)
Assay: split reporter; BiFC in planta, lower epidermis of N. benthamiana leaves, agroinfiltration of pSPYNE and pSPYCE fusions, confocal microscopy at 5 dpi

binding: binds
Substance: NbH2B fused to the C-terminal fragment of YFP (pSPYCE-NbH2B) (from UniProt A0A219V415)

These are yes or no findings as the source states them, for the method shown. In cells and extracts the contact can be indirect. Binding calls can cover weak binding; strength is not graded here.
